Assay results taken from the supplement of paper PMC7666118.
The list shows a part of the results.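 Rule for the calls: active = dose-dependent thermal stabilisation significant by F-test of dose-response against flat model at 10% FDR; inactive = not significant.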

By UniProt entry, the sequences of proteins in these tests, tags left out. Where a name states a change or a piece, a line headed by the entry shows the natural chain unless it says otherwise.
UniProt Q15831: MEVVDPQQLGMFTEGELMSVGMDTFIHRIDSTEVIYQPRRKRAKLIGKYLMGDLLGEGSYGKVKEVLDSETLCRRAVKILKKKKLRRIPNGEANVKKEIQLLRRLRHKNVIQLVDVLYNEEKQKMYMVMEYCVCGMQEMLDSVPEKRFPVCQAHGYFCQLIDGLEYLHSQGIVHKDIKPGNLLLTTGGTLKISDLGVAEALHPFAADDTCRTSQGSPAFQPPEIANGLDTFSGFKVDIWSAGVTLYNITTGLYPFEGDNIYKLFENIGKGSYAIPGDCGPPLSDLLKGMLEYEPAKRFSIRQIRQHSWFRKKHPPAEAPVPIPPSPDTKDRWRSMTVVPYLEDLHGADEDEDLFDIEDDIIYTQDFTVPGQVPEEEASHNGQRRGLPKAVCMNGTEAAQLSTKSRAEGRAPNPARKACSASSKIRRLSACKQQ
UniProt O43426, whole entry: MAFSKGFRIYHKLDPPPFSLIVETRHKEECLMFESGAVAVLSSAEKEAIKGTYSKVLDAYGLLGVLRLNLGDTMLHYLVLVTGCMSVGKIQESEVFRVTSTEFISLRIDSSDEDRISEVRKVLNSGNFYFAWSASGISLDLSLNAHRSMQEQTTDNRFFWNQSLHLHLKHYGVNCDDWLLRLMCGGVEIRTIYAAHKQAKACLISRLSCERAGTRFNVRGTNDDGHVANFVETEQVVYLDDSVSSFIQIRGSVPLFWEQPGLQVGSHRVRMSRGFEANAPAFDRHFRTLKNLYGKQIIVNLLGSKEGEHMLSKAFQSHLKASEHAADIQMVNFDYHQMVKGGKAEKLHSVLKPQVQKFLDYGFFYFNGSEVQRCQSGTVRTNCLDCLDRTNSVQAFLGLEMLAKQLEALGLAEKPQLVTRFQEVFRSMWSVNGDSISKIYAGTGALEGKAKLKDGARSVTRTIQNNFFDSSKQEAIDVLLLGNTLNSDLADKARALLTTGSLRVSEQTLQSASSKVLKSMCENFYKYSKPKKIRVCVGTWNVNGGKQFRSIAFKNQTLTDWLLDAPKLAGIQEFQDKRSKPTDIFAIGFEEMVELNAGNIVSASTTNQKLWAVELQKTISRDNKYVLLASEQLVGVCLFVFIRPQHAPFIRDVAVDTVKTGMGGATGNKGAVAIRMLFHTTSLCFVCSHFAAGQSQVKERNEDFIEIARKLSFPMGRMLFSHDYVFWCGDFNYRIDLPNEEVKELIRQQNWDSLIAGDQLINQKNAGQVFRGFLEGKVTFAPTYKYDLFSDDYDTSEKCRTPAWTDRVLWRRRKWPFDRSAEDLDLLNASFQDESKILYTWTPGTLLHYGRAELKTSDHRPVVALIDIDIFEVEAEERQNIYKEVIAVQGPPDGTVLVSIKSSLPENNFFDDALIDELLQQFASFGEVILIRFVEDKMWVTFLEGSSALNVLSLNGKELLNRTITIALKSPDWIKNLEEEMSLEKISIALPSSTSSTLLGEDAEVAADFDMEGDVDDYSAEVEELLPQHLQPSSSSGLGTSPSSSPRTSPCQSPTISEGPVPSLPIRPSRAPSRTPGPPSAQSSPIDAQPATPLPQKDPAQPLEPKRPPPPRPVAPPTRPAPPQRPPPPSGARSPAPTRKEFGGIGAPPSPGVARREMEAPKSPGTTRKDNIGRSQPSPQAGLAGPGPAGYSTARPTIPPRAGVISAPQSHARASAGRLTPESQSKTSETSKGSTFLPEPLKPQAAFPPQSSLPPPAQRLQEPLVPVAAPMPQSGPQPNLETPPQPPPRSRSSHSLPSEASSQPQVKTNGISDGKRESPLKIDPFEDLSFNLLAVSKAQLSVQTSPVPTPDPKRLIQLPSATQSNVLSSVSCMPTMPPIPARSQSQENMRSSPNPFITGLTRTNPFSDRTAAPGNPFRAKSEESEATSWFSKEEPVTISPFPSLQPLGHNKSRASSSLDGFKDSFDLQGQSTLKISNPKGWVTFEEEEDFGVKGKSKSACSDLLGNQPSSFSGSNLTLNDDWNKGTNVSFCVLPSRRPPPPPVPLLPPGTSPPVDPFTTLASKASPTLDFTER
UniProt P09012, whole entry: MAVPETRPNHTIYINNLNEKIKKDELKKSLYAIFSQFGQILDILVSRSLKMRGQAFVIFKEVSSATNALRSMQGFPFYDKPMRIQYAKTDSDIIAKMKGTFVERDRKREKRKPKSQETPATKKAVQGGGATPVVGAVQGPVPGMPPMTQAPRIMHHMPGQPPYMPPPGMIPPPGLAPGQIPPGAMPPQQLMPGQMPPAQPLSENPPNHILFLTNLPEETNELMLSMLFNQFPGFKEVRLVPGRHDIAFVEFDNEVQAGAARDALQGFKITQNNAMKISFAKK
UniProt Q9Y5X3: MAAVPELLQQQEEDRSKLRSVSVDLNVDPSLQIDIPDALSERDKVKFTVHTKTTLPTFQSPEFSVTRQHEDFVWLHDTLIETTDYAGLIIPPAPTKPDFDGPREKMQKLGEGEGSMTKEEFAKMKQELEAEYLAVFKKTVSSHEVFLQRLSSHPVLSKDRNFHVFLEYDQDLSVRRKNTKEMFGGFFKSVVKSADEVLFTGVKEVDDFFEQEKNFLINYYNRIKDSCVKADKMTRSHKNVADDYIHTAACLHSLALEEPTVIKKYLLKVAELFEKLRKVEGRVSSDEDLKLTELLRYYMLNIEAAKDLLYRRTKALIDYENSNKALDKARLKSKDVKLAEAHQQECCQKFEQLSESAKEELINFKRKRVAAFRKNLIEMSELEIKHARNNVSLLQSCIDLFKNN
UniProt Q00796: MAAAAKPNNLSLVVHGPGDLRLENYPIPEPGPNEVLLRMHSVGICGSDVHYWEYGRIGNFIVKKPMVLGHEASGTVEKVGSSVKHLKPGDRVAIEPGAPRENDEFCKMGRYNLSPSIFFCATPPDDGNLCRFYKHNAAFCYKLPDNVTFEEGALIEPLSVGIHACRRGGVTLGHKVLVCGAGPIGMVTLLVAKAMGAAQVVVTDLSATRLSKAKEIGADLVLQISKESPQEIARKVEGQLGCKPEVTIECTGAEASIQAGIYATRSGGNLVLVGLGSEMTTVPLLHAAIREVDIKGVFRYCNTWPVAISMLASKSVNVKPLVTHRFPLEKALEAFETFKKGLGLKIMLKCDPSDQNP
UniProt Q01130: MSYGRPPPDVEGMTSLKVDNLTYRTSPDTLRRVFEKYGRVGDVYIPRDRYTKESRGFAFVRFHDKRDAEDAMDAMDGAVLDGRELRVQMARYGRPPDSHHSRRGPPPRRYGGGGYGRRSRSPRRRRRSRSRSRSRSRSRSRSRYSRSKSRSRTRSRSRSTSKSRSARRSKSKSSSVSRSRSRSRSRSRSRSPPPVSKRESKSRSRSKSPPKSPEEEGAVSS
UniProt Q8TBC3: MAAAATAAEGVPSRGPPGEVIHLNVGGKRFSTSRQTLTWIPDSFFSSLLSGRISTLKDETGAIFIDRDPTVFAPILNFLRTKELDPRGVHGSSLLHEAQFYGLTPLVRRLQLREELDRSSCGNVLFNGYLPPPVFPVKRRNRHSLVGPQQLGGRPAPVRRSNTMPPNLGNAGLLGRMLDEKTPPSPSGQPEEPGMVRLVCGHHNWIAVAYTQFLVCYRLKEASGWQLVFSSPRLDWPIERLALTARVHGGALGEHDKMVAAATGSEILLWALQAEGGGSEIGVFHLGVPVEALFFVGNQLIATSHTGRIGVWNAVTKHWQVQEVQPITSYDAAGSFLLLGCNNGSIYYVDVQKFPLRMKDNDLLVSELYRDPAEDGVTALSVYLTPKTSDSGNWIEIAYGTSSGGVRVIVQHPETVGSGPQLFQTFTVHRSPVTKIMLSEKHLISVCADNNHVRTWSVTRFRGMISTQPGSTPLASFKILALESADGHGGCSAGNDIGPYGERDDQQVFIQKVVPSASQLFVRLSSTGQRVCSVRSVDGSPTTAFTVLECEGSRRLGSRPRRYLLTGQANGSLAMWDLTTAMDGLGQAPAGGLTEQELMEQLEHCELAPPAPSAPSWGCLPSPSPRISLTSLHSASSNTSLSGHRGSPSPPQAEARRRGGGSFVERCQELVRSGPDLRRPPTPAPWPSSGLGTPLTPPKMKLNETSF
UniProt Q96SB8: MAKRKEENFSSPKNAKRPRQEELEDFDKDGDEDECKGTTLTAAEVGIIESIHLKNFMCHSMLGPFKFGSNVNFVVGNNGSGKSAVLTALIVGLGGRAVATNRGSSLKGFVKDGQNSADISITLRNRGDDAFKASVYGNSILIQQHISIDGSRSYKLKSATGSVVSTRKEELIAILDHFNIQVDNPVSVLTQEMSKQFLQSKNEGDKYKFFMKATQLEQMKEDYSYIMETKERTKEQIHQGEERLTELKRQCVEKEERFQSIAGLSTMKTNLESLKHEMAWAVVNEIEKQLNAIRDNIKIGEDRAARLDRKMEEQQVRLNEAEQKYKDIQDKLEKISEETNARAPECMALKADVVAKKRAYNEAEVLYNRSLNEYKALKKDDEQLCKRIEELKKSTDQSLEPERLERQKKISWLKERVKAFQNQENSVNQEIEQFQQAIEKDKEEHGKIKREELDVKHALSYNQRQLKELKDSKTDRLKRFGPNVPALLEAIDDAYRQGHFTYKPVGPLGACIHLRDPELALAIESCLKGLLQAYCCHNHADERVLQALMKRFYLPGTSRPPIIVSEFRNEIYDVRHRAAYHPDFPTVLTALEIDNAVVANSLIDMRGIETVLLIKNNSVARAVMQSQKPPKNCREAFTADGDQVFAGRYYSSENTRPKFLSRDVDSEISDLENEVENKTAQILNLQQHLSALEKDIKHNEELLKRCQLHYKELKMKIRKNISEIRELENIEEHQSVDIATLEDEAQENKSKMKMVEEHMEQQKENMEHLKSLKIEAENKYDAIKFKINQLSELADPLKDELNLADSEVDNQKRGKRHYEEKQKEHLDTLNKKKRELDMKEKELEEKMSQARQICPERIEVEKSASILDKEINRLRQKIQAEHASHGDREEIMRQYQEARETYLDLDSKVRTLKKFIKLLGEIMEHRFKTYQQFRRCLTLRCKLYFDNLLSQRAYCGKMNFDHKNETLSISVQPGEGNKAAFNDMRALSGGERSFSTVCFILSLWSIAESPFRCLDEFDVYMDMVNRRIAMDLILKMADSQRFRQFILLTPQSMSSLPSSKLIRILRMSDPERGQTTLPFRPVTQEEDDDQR
UniProt Q96H20: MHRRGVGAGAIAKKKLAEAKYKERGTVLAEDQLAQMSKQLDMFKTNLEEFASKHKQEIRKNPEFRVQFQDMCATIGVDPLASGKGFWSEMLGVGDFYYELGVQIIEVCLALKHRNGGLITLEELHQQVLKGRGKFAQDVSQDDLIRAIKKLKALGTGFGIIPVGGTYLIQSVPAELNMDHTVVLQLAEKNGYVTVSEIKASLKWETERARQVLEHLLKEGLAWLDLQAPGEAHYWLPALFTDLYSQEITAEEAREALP
UniProt Q8N9Q2: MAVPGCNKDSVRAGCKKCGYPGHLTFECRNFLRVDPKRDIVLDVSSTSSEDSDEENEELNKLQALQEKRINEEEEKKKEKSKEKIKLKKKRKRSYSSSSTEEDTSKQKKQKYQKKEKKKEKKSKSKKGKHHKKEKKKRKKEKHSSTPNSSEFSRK
UniProt O95926: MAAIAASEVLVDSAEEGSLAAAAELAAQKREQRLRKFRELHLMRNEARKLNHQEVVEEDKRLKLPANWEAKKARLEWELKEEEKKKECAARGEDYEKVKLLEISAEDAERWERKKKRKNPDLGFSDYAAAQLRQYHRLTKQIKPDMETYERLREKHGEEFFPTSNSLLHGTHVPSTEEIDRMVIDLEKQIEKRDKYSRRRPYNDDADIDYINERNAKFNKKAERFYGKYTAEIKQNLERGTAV
UniProt P34897: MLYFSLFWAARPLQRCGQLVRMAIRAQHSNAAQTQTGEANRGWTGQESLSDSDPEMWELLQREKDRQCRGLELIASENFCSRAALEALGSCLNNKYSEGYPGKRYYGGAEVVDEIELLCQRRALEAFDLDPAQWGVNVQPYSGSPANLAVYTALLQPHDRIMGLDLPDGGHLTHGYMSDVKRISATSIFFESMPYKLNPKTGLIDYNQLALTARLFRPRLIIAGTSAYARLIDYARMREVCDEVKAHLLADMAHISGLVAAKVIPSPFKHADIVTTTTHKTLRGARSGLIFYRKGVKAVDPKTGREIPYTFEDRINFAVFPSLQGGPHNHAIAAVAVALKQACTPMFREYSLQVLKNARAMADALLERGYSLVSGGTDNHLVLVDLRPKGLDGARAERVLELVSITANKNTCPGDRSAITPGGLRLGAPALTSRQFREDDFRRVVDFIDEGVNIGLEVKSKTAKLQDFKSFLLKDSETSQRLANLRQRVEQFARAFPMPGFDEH
UniProt Q7Z7C8, whole entry: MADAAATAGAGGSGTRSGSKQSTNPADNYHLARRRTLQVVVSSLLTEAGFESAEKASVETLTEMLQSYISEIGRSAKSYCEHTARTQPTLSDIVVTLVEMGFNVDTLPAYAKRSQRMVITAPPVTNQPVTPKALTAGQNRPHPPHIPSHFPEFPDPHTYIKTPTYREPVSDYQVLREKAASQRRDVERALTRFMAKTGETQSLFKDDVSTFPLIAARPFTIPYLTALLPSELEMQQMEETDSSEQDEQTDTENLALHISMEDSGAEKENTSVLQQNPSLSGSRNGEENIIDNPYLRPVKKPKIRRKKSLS

Compound: Nc1nc2c(ncn2[C@@H]2O[C@H](COP(=O)(O)OP(=O)(O)OP(=O)(O)O)[C@@H](O)[C@H]2O)c(=O)[nH]1
Assay: dose-dependent thermal stabilisation call (2D-TPP, DLPTP, 10% FDR) (binary (1 = stabilised)); higher = stabilised by the compound
Settings: system: Jurkat gel-filtered lysate; concentration range 1-500 µM
Method: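 2D thermal proteome profiling in gel-filtered Jurkat E6.1 lysate (2 mg/ml) treated with NaGTP (0, 1, 10, 100, 500 uM) for 10 min at room temperature, then heated 3 min at one of 12 temperatures (42-63.9 C). Soluble protein was quantified by TMT10 MS. The value is the DLPTP call of the paper: dose-dependent thermal stabilisation over all temperatures at 10% FDR (F-test of a dose-response against a flat model); one experiment, one call per tested protein.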

| Target | dose-dependent thermal stabilisation call |
| --- | --- |
| SRP9 (UniProt P49458) | inactive: 0 |
| SNX2 (UniProt O60749) | inactive: 0 |
| STK11 (UniProt Q15831) | inactive: 0 |
| SYNJ1 (UniProt O43426) | inactive: 0 |
| SNRPD1 (UniProt P62314) | inactive: 0 |
| SUCLA2 (UniProt Q9P2R7) | active: 1 |
| STX10 (UniProt O60499) | inactive: 0 |
| SRSF3 (UniProt P84103) | active: 1 |
| SURF2 (UniProt Q15527) | active: 1 |
| SNRPF (UniProt P62306) | inactive: 0 |
| STRN (UniProt O43815) | inactive: 0 |
| SNRPA (UniProt P09012) | inactive: 0 |
| SYMPK (UniProt Q92797) | active: 1 |
| SHCBP1 (UniProt Q8NEM2) | inactive: 0 |
| SNX5 (UniProt Q9Y5X3) | inactive: 0 |
| SNAP29 (UniProt O95721) | inactive: 0 |
| SORD (UniProt Q00796) | active: 1 |
| SND1 (UniProt Q7KZF4) | active: 1 |
| SRSF2 (UniProt Q01130) | active: 1 |
| SOS1 (UniProt Q07889) | inactive: 0 |

| Target | dose-dependent thermal stabilisation call |
| --- | --- |
| SNX12 (UniProt Q9UMY4) | inactive: 0 |
| SHKBP1 (UniProt Q8TBC3) | active: 1 |
| SNTB1 (UniProt Q13884) | inactive: 0 |
| SMC1A (UniProt Q14683) | inactive: 0 |
| STXBP4 (UniProt Q6ZWJ1) | inactive: 0 |
| SOD1 (UniProt P00441) | inactive: 0 |
| SMC6 (UniProt Q96SB8) | active: 1 |
| SNF8 (UniProt Q96H20) | inactive: 0 |
| SREK1IP1 (UniProt Q8N9Q2) | inactive: 0 |
| SP3 (UniProt Q02447) | inactive: 0 |
| SUB1 (UniProt P53999) | inactive: 0 |
| SNRPD2 (UniProt P62316) | inactive: 0 |
| SLC9A3R1 (UniProt O14745) | inactive: 0 |
| STK4 (UniProt Q13043) | inactive: 0 |
| SYF2 (UniProt O95926) | inactive: 0 |
| STIL (UniProt Q15468) | inactive: 0 |
| SSBP4 (UniProt Q9BWG4) | inactive: 0 |
| SHQ1 (UniProt Q6PI26) | inactive: 0 |
| SHMT2 (UniProt P34897) | active: 1 |
| TAF8 (UniProt Q7Z7C8) | inactive: 0 |

No new results follow: entries from further up.

| Target | dose-dependent thermal stabilisation call |
| --- | --- |
| SOD1 (UniProt P00441) | inactive: 0 |
| SMC6 (UniProt Q96SB8) | active: 1 |
